# Data as given in PubChem BioAssay AID1259405 (NCATS, 2018).
# Assay: 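Knock-downs that lift recombinant protein yield in hamster ovary cells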 (primary screen)
# Cells: Chinese hamster CHO-K1 ovary cells with stable secreted eGFP expression
# Reagents: single siRNA against mouse genes, 0.8 pmol siRNA per well (2 µl of 400 nM stock)
# Duration: 3 days
# Read-out: 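Percent of the per-plate non-targeting control median for intracellular GFP per well by laser scanning cytometry and for cell viability by ATP luminescence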
# Scale: GFP, % of control: higher = more GFP per well, higher productivity; viability (ATP), % of control: higher = more viable cells (more ATP)
# Rule for the call: 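a knock-down is called active if GFP reaches 120% or more of non-targeting control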
# The deposit covers about 50,000 reagents; shown is a random part of them. About 4,000 of them (8%) were called active. 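Mouse siRNA library applied to hamster cells; one well for each siRNA.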 The numbers tell different reagents against one gene apart.
gene,reagent no.,"GFP, % of control","viability (ATP), % of control",call
Cklf,1,68.4,78.2,inactive
Cklf,2,107,90.4,inactive
Cklf,3,84.8,97.9,inactive
Nlgn3,1,53.9,63.2,inactive
Nlgn3,2,79.1,86.2,inactive
Nlgn3,3,80.6,109,inactive
Hey2,1,59.5,95.3,inactive
Hey2,2,82,89.9,inactive
Ceacam20,1,28.7,15.3,inactive
Ceacam20,2,120,89.6,inactive
Ceacam20,3,72.4,74.9,inactive
Tmpo,1,52.4,28.7,inactive
Tmpo,2,53.4,96.3,inactive
Tmpo,3,101,60.3,inactive
Zswim4,1,90.7,56.3,inactive
Zswim4,2,47.7,53.9,inactive
Zswim4,3,79.7,99.5,inactive
Trim44,1,115,61,inactive
Trim44,2,65.2,78.3,inactive
Trim44,3,64.8,61.4,inactive
Zbed3,1,68.8,99.8,inactive
Zbed3,2,59.9,76.9,inactive
Zbed3,3,123,103,active
Kcnk3,1,100,99.4,inactive
Kcnk3,2,149,87.5,active
Kcnk3,3,98,88.7,inactive
Or4a39,1,142,74.7,active
Or4a39,2,77.4,48.3,inactive
Or4a39,3,42.9,64,inactive
Zfp36,1,153,68.2,active
Zfp36,2,105,71,inactive
Zfp36,3,108,116,inactive
Zfp36,4,132,117,active
Zfp36,5,87.7,102,inactive
Chrm1,1,52.4,26.5,inactive
Chrm1,2,61.1,67.5,inactive
Chrm1,3,62.2,66.1,inactive
Eeig1,1,68,60,inactive
Eeig1,2,62.6,62.5,inactive
Eeig1,3,141,122,active
Steap1,1,120,75.4,active
Steap1,2,37.7,72.3,inactive
Steap1,3,55.9,52.9,inactive
Nbeal1,1,76.9,92.2,inactive
Nbeal1,2,104,77.5,inactive
Nbeal1,3,91.9,81.2,inactive
Plekhh2,1,60.8,58.3,inactive
Plekhh2,2,54.8,50.1,inactive
Plekhh2,3,70.9,79.4,inactive
Sspn,1,96.1,73.3,inactive
Sspn,2,88.8,105,inactive
Sspn,3,122,77.7,active
Slc25a25,1,64.6,53.8,inactive
Slc25a25,2,87.2,89.3,inactive
Slc25a25,3,94.8,62.4,inactive
Tulp1,1,115,63.3,inactive
Tulp1,2,101,93.1,inactive
Tulp1,3,107,101,inactive

8 entries already listed, arranged by “viability (ATP), % of control”, highest first.
gene,reagent no.,"GFP, % of control","viability (ATP), % of control",call
Nlgn3,3,80.6,109,inactive
Cklf,3,84.8,97.9,inactive
Hey2,1,59.5,95.3,inactive
Cklf,2,107,90.4,inactive
Hey2,2,82,89.9,inactive
Nlgn3,2,79.1,86.2,inactive
Nlgn3,1,53.9,63.2,inactive
Ceacam20,1,28.7,15.3,inactive
